Data taken from US9862748B2 (priority 2012, dated 2018).
Square brackets hold non-standard residues; d marks the D form. Ends that are not written are not given here. AEEA = NCCOCCOCC(=O)O

Experiment: general procedure: Fmoc solid-phase peptide synthesis; Fmoc-Arg(Pbf)-Wang resin; DIC/HOBT
Details: whole synthesis, scale of the general procedure 0.1-mmol or 0.5-mmol

Substance: [AEEA][AEEA]RRRRNQGRHFSGGALIHARFVMTAASCFQR
- final purity (method not given): 97.24%
